# Data reported in patent US20240201191A1, “CITRULLINATED PROTEINS AS BIOMARKERS AND THERAPY TARGETS FOR CANCER” (BOARD OF REGENTS, THE UNIVERSITY OF TEXAS SYSTEM, priority 2022, published 2024).
# Some ranges recur; such a range may be that of the whole group of compounds.
# Test system: MDA-MB-468 (TNBC) cells
# Test: Cell surface HLA-bound peptidyl-citrullinome by mass spectrometry, MDA-MB-468
# Assay type: cell-based, human
# Conditions: mild acid elution, LC-MS/MS, FDR=0.01; class by peptide length
row,Substance,Cell surface MHC binding citrullinated peptide identified in MDA-MB-468 (TNBC)
1,"MAR*LTWASHEKMHEGDEGPGHHHKPGLGEG (MARLTWASHEKMHEGDEGPGHHHKPGLGEG; citrulline at R3; MOD_RES (3)..(3) Citrullinated Arginine) [SEQ ID NO: 114, S100A9 peptide, R3(Cit.)]",MHC-II (from 12 to 34 as MHC-IU binding peptides)
2,"KLEQSEAQLGR*GSF (KLEQSEAQLGRGSF; citrulline at R11; MOD_RES (11)..(11) Citrullinated Arginine) [SEQ ID NO: 27, COPS5 peptide, R11(Cit.)]",MHC-II (from 12 to 34 as MHC-IU binding peptides)
3,"FNKPDIDAWELR*KGINTL (FNKPDIDAWELRKGINTL; citrulline at R12; MOD_RES (12)..(12) Citrullinated Arginine) [SEQ ID NO: 28, COX5A peptide, R12(Cit.)]",MHC-II (from 12 to 34 as MHC-IU binding peptides)
4,"YSIQGQHTISPLDLAKLNQVAR*QQSH (YSIQGQHTISPLDLAKLNQVARQQSH; citrulline at R22; MOD_RES (22)..(22) Citrullinated Arginine) [SEQ ID NO: 76, PCBP1 peptide, R22(Cit.)]",MHC-II (from 12 to 34 as MHC-IU binding peptides)
5,"MLVSNR*VSWWGSTLAMLQRLKEQQFVIAGVL (MLVSNRVSWWGSTLAMLQRLKEQQFVIAGVL; oxidized M1; citrulline at R6; MOD_RES (1)..(1) Oxidized Methionine; MOD_RES (6)..(6) Citrullinated Arginine) [SEQ ID NO: 135, ZBED1 peptide, M1(Oxi.); R6(Cit.)]",MHC-II (from 12 to 34 as MHC-IU binding peptides)
6,"WSDLDELKGAR*SLET (WSDLDELKGARSLET; citrulline at R11; MOD_RES (11)..(11) Citrullinated Arginine) [SEQ ID NO: 101, PPPIR7 peptide, R11(Cit.)]",MHC-II (from 12 to 34 as MHC-IU binding peptides)
7,"VKR*QFMNKSLSGPGQ (VKRQFMNKSLSGPGQ; citrulline at R3; MOD_RES (3)..(3) Citrullinated Arginine) [SEQ ID NO: 4, ARPC3 peptide, R3(Cit.)]",MHC-II (from 12 to 34 as MHC-IU binding peptides)
8,"LPPDAEGPHGQFVSEKR*VE (LPPDAEGPHGQFVSEKRVE; citrulline at R17; MOD_RES (17)..(17) Citrullinated Arginine) [SEQ ID NO: 22, CBR1 peptide, R17(Cit.)]",MHC-II (from 12 to 34 as MHC-IU binding peptides)
9,"GIYVKTIFAGGAAAADGR*LQEGDE (GIYVKTIFAGGAAAADGRLQEGDE; citrulline at R18; MOD_RES (18)..(18) Citrullinated Arginine) [SEQ ID NO: 60, IL16 peptide, R18(Cit.)]",MHC-II (from 12 to 34 as MHC-IU binding peptides)
10,"FTKTHPQWYPAR*QSL (FTKTHPQWYPARQSL; citrulline at R12; MOD_RES (12)..(12) Citrullinated Arginine) [SEQ ID NO: 129, TECR peptide, R12(Cit.)]",MHC-II (from 12 to 34 as MHC-IU binding peptides)
11,"GGTR*GANGGR*VPGNGAGLGPGR* (GGTRGANGGRVPGNGAGLGPGR; citrulline at R4, R10, R22; MOD_RES (4)..(4) Citrullinated Arginine; MOD_RES (10)..(10) Citrullinated Arginine; MOD_RES (22)..(22) Citrullinated Arginine) [SEQ ID NO: 121, SRF peptide, R4(Cit.); R10(Cit.); R22(Cit.)]",MHC-II (from 12 to 34 as MHC-IU binding peptides)
12,"MDAPVSGGVGAAR*SGNLTF (MDAPVSGGVGAARSGNLTF; citrulline at R13; MOD_RES (13)..(13) Citrullinated Arginine) [SEQ ID NO: 54, HIBADH peptide, R.13(Cit.)]",MHC-II (from 12 to 34 as MHC-IU binding peptides)
13,"MIREADVDQDGR*VNYE (MIREADVDQDGRVNYE; citrulline at R12; MOD_RES (12)..(12) Citrullinated Arginine) [SEQ ID NO: 18, CALML5 peptide, R12(Cit.)]",MHC-II (from 12 to 34 as MHC-IU binding peptides)
14,"VIGLQMGTNRGASQAGMTGYGMPR*Q (VIGLQMGTNRGASQAGMTGYGMPRQ; citrulline at R24; MOD_RES (24)..(24) Citrullinated Arginine) [SEQ ID NO: 125, TAGLN2 peptide, R24(Cit.)]",MHC-II (from 12 to 34 as MHC-IU binding peptides)
15,"IPR*ALAENSGVKANEVISKL (IPRALAENSGVKANEVISKL; citrulline at R3; MOD_RES (3)..(3) Citrullinated Arginine) [SEQ ID NO: 23, CCT8 peptide, R3(Cit.)]",MHC-II (from 12 to 34 as MHC-IU binding peptides)
16,"PKRKVSSAEGAAKEEPKRR*SARLS (PKRKVSSAEGAAKEEPKRRSARLS; citrulline at R19; MOD_RES (19)..(19) Citrullinated Arginine) [SEQ ID NO: 57, HMGN1 peptide, R19(Cit.)]",MHC-II (from 12 to 34 as MHC-IU binding peptides)
17,"PGHLQEGFGCVVTNR*F (PGHLQEGFGCVVTNRF; citrulline at R15; MOD_RES (15)..(15) Citrullinated Arginine) [SEQ ID NO: 117, SERBP1 peptide, R15(Cit.)]",MHC-II (from 12 to 34 as MHC-IU binding peptides)
18,"IAQQMMPEVR*GALFGANANRKF (IAQQMMPEVRGALFGANANRKF; citrulline at R10; MOD_RES (10)..(10) Citrullinated Arginine) [SEQ ID NO: 9, ATP6V1E1 peptide, R10(Cit.)]",MHC-II (from 12 to 34 as MHC-IU binding peptides)
19,"GQENPQLLQQISR*HQEQF (GQENPQLLQQISRHQEQF; citrulline at R13; MOD_RES (13)..(13) Citrullinated Arginine) [SEQ ID NO: 107, RAD23A peptide, R13(Cit.)]",MHC-II (from 12 to 34 as MHC-IU binding peptides)
20,ENLIR*KHTGSGILSMANAGPNINGSQF [SEQ ID NO: 91],MHC-II (from 12 to 34 as MHC-IU binding peptides)
21,"YVSNEELR*GSTPEAAAQVVQ (YVSNEELRGSTPEAAAQVVQ; citrulline at R8; MOD_RES (8)..(8) Citrullinated Arginine) [SEQ ID NO: 39, EEF1G peptide, R8(Cit.)]",MHC-II (from 12 to 34 as MHC-IU binding peptides)
22,"IFPER*IDPNPADSQKSTQVE (IFPERIDPNPADSQKSTQVE; citrulline at R5; MOD_RES (5)..(5) Citrullinated Arginine) [SEQ ID NO: 131, TIPRL peptide, R5(Cit.)]",MHC-II (from 12 to 34 as MHC-IU binding peptides)
23,"WAALENKSKQR*TNPSPTNPFSSDLQK (WAALENKSKQRTNPSPTNPFSSDLQK; citrulline at R11; MOD_RES (11)..(11) Citrullinated Arginine) [SEQ ID NO: 73, NUMB peptide, R11(Cit.)]",MHC-II (from 12 to 34 as MHC-IU binding peptides)
24,"LQQIGR*ENPQLLQQISQHQEH (LQQIGRENPQLLQQISQHQEH; citrulline at R6; MOD_RES (6)..(6) Citrullinated Arginine) [SEQ ID NO: 108, RAD23B peptide, R6(Cit.)]",MHC-II (from 12 to 34 as MHC-IU binding peptides)
25,"LAENGR*LSNTQGVVSAFS (LAENGRLSNTQGVVSAFS; citrulline at R6; MOD_RES (6)..(6) Citrullinated Arginine) [SEQ ID NO: 7, ATP5O peptide, R6(Cit.)]",MHC-II (from 12 to 34 as MHC-IU binding peptides)
26,"GLLDSHLIKEAGDAESR* (citrulline at R17; MOD_RES (17)..(17) Citrullinated Arginine) [SEQ ID NO: 119, SFN peptide, R17(Cit.)]",MHC-II (from 12 to 34 as MHC-IU binding peptides)
27,"R*QTVAVGVIKAVDKKAAGAGKVTKSAQKAQKAK (RQTVAVGVIKAVDKKAAGAGKVTKSAQKAQKAK; citrulline at R1; MOD_RES (1)..(1) Citrullinated Arginine) [SEQ ID NO: 38, EEF1A1 peptide, RI(Cit.)]",MHC-II (from 12 to 34 as MHC-IU binding peptides)
28,"LMPNGPMR*ITSGPFEPDL (LMPNGPMRITSGPFEPDL; citrulline at R8; MOD_RES (8)..(8) Citrullinated Arginine) [SEQ ID NO: 75, PA2G4 peptide, R8(Cit.)]",MHC-II (from 12 to 34 as MHC-IU binding peptides)
29,"ISWYDNEFGYSNR*VVD (ISWYDNEFGYSNRVVD; citrulline at R13; MOD_RES (13)..(13) Citrullinated Arginine) [SEQ ID NO: 49, GAPDH peptide, R13(Cit.)]",MHC-II (from 12 to 34 as MHC-IU binding peptides)
30,"NVVKTGR*VMLGETNPADSKPGTIR*GD (NVVKTGRVMLGETNPADSKPGTIRGD; citrulline at R7 and R24; MOD_RES (7)..(7) Citrullinated Arginine; MOD_RES (24)..(24) Citrullinated Arginine) [SEQ ID NO: 69, NME2 peptide, R7(Cit.); R24(Cit.)]",MHC-II (from 12 to 34 as MHC-IU binding peptides)
